{
  "source": "PubChem BioAssay AID540276",
  "about": "(National Center for Advancing Translational Sciences (NCATS), 2011)",
  "note": "Where “and” joins values, the source holds several entries; their conditions need not be identical. Equal values may be shown once. The campaign covered roughly 300,000 compounds. About 5,400 (1.8%) were called active. Inconclusive results, whose numbers are uncertain, are shown with a selection of clear calls. The call rests on the fitted dose curve; tested in HEK293 cells. Potencies beside an inconclusive call are fits to weak or partial responses and may not hold up. Potency means the concentration at half of the fitted maximal effect.",
  "data": [
    {"experiment": "qHTS for inhibitors of binding or entry into cells for Marburg Virus", "conditions": "Marburg virus pseudotyped entry inhibition, cell reporter; series mostly up to 37.8 µM", "values": [
      {"smiles": "N/C(Cc1cccs1)=N\\OC(=O)COc1ccc(Cl)cc1Cl", "Potency": "inconclusive: 7.08 µM [activator, full curve]"},
      {"smiles": "O=C1OC(/C=C/c2ccc(Cl)cc2)=NC/1=C/c1ccco1", "Potency": "inactive"},
      {"smiles": "O=C(NC1CCCN(Cc2ccc(Cl)cc2)C1)C1CCC1", "note": "(stereo not drawn)", "Potency": "inactive"},
      {"smiles": "COc1ccc(CCNC(=O)CSc2nc3ccccc3o2)cc1OC", "Potency": "inactive"},
      {"smiles": "c1ccc(CCC2=NCCn3cccc32)cc1", "Potency": "inconclusive: 11.2 µM [activator, partial curve, poor fit]"},
      {"smiles": "Cc1c(C(=O)N2CCc3ccccc3C2)oc2ccc(S(=O)(=O)N3CC(C)CC(C)C3)cc12", "note": "(stereo not drawn)", "Potency": "inconclusive: 14.1 µM [inhibitor, single point]"},
      {"smiles": "C/C(=N\\NC(=O)c1ccccc1)c1ccc(N2CCCCC2)cc1", "Potency": "inactive"},
      {"smiles": "COCCCn1c(SCC(=O)N2CCc3ccccc32)nnc1-c1ccco1", "Potency": "inactive"},
      {"smiles": "Clc1ccc(Cc2nnc(-c3ccccc3Br)o2)cc1", "Potency": "inactive"},
      {"smiles": "COc1ccc(C(=O)c2ccc(OC)c(OC)c2OC)cc1", "Potency": "inconclusive: 2.51 µM [inhibitor, full curve, poor fit]"},
      {"smiles": "Cc1nc2c(C(=O)N3CCCCC3)cnn2c(C)c1Cc1ccccc1F", "Potency": "inactive"},
      {"smiles": "COc1ccccc1C=NN=Cc1ccccc1O", "Potency": "inconclusive: 7.94 µM [activator, partial curve, poor fit]"},
      {"smiles": "Cc1ccc(N2C(=O)CC(C)(C)CC2=O)cc1Cl", "Potency": "inconclusive: 3.98 µM [activator, partial curve, poor fit]"},
      {"smiles": "C/C(=N\\NC(=O)Cc1csc(N2CCOCC2)n1)c1ccc(Cl)c(Cl)c1", "Potency": "inconclusive: 1.78 µM [inhibitor, partial curve, poor fit]"},
      {"smiles": "Cc1ccc(-c2csc(NC(=O)C3CC(=O)N(Cc4ccco4)C3)n2)cc1", "note": "(stereo not drawn)", "Potency": "inconclusive: 14.1 µM [inhibitor, partial curve, poor fit]"},
      {"smiles": "Cc1ccc(SCCC(=O)N(C)C)cc1", "Potency": "inconclusive: 0.73 µM [activator, full curve, poor fit]"},
      {"smiles": "OCCC1CN(Cc2cccn2-c2nccs2)CCN1CCc1ccccc1", "note": "(stereo not drawn)", "Potency": "inconclusive: 11.2 µM [inhibitor, partial curve, poor fit]"},
      {"smiles": "CCOc1ccc(CCNC(=O)COC(=O)c2c(OC)cccc2OC)cc1OCC", "Potency": "inactive"},
      {"smiles": "C=CCNc1nc(Nc2ccc([N+](=O)[O-])cc2)nc(N2CCCC2)n1", "Potency": "inconclusive: 35.5 µM [inhibitor, single point]"},
      {"smiles": "CCOC(=O)c1c(NC(C)=O)sc(C(=O)NC2CCCC2)c1C", "Potency": "inactive"},
      {"smiles": "CCOc1ccc(C(=O)COC(=O)c2cc([N+](=O)[O-])ccc2N2CCOCC2)cc1", "Potency": "inconclusive: 3.16 µM [inhibitor, partial curve, poor fit]"},
      {"smiles": "COc1ccc(CCNC(=O)c2ccc3c(c2)CCN3S(=O)(=O)c2ccccc2)cc1", "Potency": "inactive"},
      {"smiles": "COc1ccc(CC(=O)NCC(=O)Nc2ccccc2Br)cc1", "Potency": "inconclusive: 35.5 µM [inhibitor, single point]"},
      {"smiles": "COc1ccccc1N1CCN(C(=O)CC(NC(=O)c2ccccc2Cl)c2ccccc2)CC1", "note": "(stereo not drawn)", "Potency": "inconclusive: 2.51 µM [inhibitor, full curve]"},
      {"smiles": "COc1cc(/C=C/C(C)=O)cc(OC)c1OC", "Potency": "inactive"},
      {"smiles": "O=C(CN1C(=O)NC2(CCCC2)C1=O)OCc1ccc(Br)cc1", "Potency": "inactive"},
      {"smiles": "O=[N+]([O-])c1ccc(C(O)CN2CCOCC2)cc1", "note": "(stereo not drawn)", "Potency": "inactive"},
      {"smiles": "CCc1ccc(NC(=O)CSc2nc3nc(C)cc(C)n3n2)cc1", "Potency": "inactive"},
      {"smiles": "CCC(=O)Nc1ccc(N2CCN(Cc3ccccc3)CC2)cc1", "Potency": "inconclusive: 0.112 µM [activator, partial curve, poor fit]"},
      {"smiles": "COc1ccc2c(c1)O[C@H](c1ccc3c(c1)OCO3)[C@@H](OC(=O)N[C@H]1CCCc3ccccc31)C2=O", "Potency": "inconclusive: 841 nM [inhibitor, single point] and inconclusive: 8.2 µM [activator, partial curve]"},
      {"smiles": "Cc1ccc(S(=O)(=O)N2CCN(C(=O)Cc3sc(C)nc3-c3ccc(F)cc3)CC2)c(C)c1", "Potency": "inconclusive: 25.1 µM [inhibitor, single point]"},
      {"smiles": "Cc1ccc(NC(=O)c2ccc(NCCN)c([N+](=O)[O-])c2)cc1", "Potency": "inactive"},
      {"smiles": "Cc1ccc2nc(NCc3ccccc3)c3nncn3c2c1", "Potency": "inactive"},
      {"smiles": "CC(C)C(NC(=O)c1ccc(Cl)cc1Cl)C(=O)N1CCN(S(=O)(=O)c2ccccc2)CC1", "note": "(stereo not drawn)", "Potency": "inconclusive: 20 µM [inhibitor, partial curve, poor fit]"},
      {"smiles": "O=C(C=Cc1ccccc1)N1CCC[C@H]1CO", "Potency": "inconclusive: 3.76 µM [activator, single point]"},
      {"smiles": "O=C1N[C@H]2c3ccccc3C(=O)N2c2c1cnn2-c1ccccc1", "Potency": "inconclusive: 2 µM [inhibitor, single point]"},
      {"smiles": "COc1ccc(N2C(N)=C(C#N)C(c3cccnc3)C3=C2CC(C)(C)CC3=O)cc1", "note": "(stereo not drawn)", "Potency": "inconclusive: 8.91 µM [inhibitor, partial curve]"},
      {"smiles": "COc1ccc(NC(=O)CSc2ccc(C)cc2)cc1", "Potency": "inactive"},
      {"smiles": "COc1ccccc1N(CC(=O)N1CCCCCC1)S(=O)(=O)c1ccc(C)cc1", "Potency": "inconclusive: 14.1 µM [inhibitor, single point]"},
      {"smiles": "COc1ccc(/C(N)=N/OC(=O)CCCc2ccccc2)cc1OC", "Potency": "inconclusive: 18.4 µM [activator, partial curve, poor fit]"},
      {"smiles": "CCOC(=O)C1CCN(C(=O)/C=C/c2cc(OC)c(OC)c(OC)c2)CC1", "Potency": "inconclusive: 0.184 µM [activator, single point]"},
      {"smiles": "Cc1cc(C)c2c(c1)C1C=CCC1C(c1ccc(S(=O)(=O)N3CCOCC3)cc1)N2", "note": "(stereo not drawn)", "Potency": "inconclusive: 32.6 µM [inhibitor, single point]"},
      {"smiles": "CCN1C(=NCC(C)C)N[C@H](c2ccccc2)[C@H](C(=O)OC)[C@H]1C", "Potency": "inactive"},
      {"smiles": "O=S(=O)(c1ccc(C2CCCCC2)cc1)N1CCN(c2cc(Cl)ccc2Cl)CC1", "Potency": "inactive"},
      {"smiles": "CCOC(=O)C1CCCN(C2CC(=O)N(c3cccc(C(F)(F)F)c3)C2=O)C1", "note": "(stereo not drawn)", "Potency": "inactive"},
      {"smiles": "O=C(C1COc2ccccc2O1)N1CCN(c2nc3c(F)cc(F)cc3s2)CC1", "note": "(stereo not drawn)", "Potency": "inconclusive: 3.55 µM [activator, full curve, poor fit]"},
      {"smiles": "CCN(CC)S(=O)(=O)c1ccc(OC)c(NC(=O)c2cccc([N+](=O)[O-])c2C)c1", "Potency": "inconclusive: 35.5 µM [inhibitor, single point]"},
      {"smiles": "Cc1nc2cc(NC(=O)NCCC3=CCCCC3)ccc2o1", "Potency": "inactive"},
      {"smiles": "COc1ccc(C(=O)N2CCCC(CO)(Cc3ccccc3C)C2)o1", "note": "(stereo not drawn)", "Potency": "inactive"},
      {"smiles": "CCn1c(=O)c2cc(C(=O)Nc3cccc(C(F)(F)F)c3)sc2c2ccccc21", "Potency": "inactive"},
      {"smiles": "COc1ccc(NC(=O)[C@@H]2CCCN2C(=O)[C@@H]2Cc3ccccc3CN2C(=O)OC(C)(C)C)cc1", "Potency": "inactive"},
      {"smiles": "O=S(=O)(c1cccc(COc2c(Cl)cccc2Cl)c1)N1CCOCC1", "Potency": "inconclusive: 3.16 µM [activator, single point]"},
      {"smiles": "Cn1cnc2c1c(=O)n(CC(O)CO)c(=O)n2C", "note": "(stereo not drawn)", "Potency": "inactive"},
      {"smiles": "COC(=O)c1nnn(-c2ccc(Cl)c(Cl)c2)c1C(=O)OC", "Potency": "inconclusive: 3.98 µM [inhibitor, partial curve, poor fit]"},
      {"smiles": "O=C(NCCc1ccccc1)c1ccc([N+](=O)[O-])cc1", "Potency": "inconclusive: 11.2 µM [inhibitor, single point]"},
      {"smiles": "COc1cccc(/C=N/NC(=S)Nc2cccc(C(=O)O)c2)c1O", "Potency": "active: 5.8 µM"},
      {"smiles": "Cc1cccc(S(=O)(=O)c2c(C)cc(C)nc2Cl)c1", "Potency": "inconclusive: 0.562 µM [inhibitor, partial curve, poor fit]"},
      {"smiles": "CCOc1ccc2c(c1)C(c1ccccc1)=NNC(c1ccccc1)=N2", "Potency": "inactive"},
      {"smiles": "COc1ccccc1NC(=O)CSc1nc2n[nH]c(C)c2c(=N)n1-c1ccccc1Cl", "Potency": "active: 14.6 µM"},
      {"smiles": "N#CC1(NC(=O)CSc2ccccn2)CCCCC1", "Potency": "inconclusive: 0.355 µM [inhibitor, partial curve, poor fit]"},
      {"smiles": "CCc1nnc(N/N=C/c2cccs2)n1N", "Potency": "inconclusive: 20.6 µM [inhibitor, single point]"},
      {"smiles": "COc1ccc2nc(NC(=O)CSc3cn[nH]n3)sc2c1", "Potency": "inconclusive: 11.2 µM [inhibitor, single point]"},
      {"smiles": "Cc1ccc(Cl)cc1N1CCN(CC(O)COCc2ccco2)CC1", "note": "(stereo not drawn)", "Potency": "inconclusive: 5.62 µM [inhibitor, partial curve]"},
      {"smiles": "COc1cc(Cl)c(C)cc1NC(=O)CC1Oc2ccccc2NC1=O", "note": "(stereo not drawn)", "Potency": "inconclusive: 6.31 µM [activator, partial curve, poor fit]"},
      {"smiles": "CN(C(=O)CSc1nc2ccc(NC(=O)c3cccc(F)c3)cc2s1)c1ccccc1", "Potency": "inconclusive: 35.5 µM [inhibitor, single point]"},
      {"smiles": "CCOc1ccc(CNC(=O)c2ccc3c(Cl)c4c(nc3c2)CCCC4)cc1", "Potency": "inactive"},
      {"smiles": "COc1cccc(C2N=C(c3ccccc3C)NO2)c1OC", "note": "(stereo not drawn)", "Potency": "inactive"},
      {"smiles": "CC(C)OCCCN1CC(=O)N2[C@@H](Cc3c([nH]c4ccccc34)C2(C)C)C1=O", "Potency": "inactive"},
      {"smiles": "O=C(CCl)Nc1cc(-c2ccccc2)nn1-c1ccccc1", "Potency": "active: 5.17 µM"},
      {"smiles": "CC1=Nc2ccccc2/C1=C/c1c(O)n(C)c(=O)[nH]c1=O", "Potency": "inconclusive: 35.5 µM [inhibitor, single point]"},
      {"smiles": "COc1cc2c(C(=O)NCc3ccc4c(c3)OCO4)cn(C)c(=O)c2cc1OC", "Potency": "inactive"},
      {"smiles": "Cc1cc(C)n(-c2ccc(C(=O)Nc3ccc(S(=O)(=O)N(C)C)cc3)cc2)n1", "Potency": "inconclusive: 14.6 µM [inhibitor, single point]"},
      {"smiles": "CCOC(=O)N1CCN(C(=O)c2ccc3c(c2)N(C)C(=O)/C(=C\\c2ccc(OCC)c(OC)c2)S3)CC1", "Potency": "active: 11.2 µM"}
    ]}
  ]
}
